# According to PubChem BioAssay AID1224863 (Southern Research Institute, 2016):
# Chains of the proteins cited; added tags and fusions are not shown. A line that says so, or that is headed by a name, gives the form on record, which may keep a tag or linker.
# UniProt P13569, with tags, fused parts or gaps F508del: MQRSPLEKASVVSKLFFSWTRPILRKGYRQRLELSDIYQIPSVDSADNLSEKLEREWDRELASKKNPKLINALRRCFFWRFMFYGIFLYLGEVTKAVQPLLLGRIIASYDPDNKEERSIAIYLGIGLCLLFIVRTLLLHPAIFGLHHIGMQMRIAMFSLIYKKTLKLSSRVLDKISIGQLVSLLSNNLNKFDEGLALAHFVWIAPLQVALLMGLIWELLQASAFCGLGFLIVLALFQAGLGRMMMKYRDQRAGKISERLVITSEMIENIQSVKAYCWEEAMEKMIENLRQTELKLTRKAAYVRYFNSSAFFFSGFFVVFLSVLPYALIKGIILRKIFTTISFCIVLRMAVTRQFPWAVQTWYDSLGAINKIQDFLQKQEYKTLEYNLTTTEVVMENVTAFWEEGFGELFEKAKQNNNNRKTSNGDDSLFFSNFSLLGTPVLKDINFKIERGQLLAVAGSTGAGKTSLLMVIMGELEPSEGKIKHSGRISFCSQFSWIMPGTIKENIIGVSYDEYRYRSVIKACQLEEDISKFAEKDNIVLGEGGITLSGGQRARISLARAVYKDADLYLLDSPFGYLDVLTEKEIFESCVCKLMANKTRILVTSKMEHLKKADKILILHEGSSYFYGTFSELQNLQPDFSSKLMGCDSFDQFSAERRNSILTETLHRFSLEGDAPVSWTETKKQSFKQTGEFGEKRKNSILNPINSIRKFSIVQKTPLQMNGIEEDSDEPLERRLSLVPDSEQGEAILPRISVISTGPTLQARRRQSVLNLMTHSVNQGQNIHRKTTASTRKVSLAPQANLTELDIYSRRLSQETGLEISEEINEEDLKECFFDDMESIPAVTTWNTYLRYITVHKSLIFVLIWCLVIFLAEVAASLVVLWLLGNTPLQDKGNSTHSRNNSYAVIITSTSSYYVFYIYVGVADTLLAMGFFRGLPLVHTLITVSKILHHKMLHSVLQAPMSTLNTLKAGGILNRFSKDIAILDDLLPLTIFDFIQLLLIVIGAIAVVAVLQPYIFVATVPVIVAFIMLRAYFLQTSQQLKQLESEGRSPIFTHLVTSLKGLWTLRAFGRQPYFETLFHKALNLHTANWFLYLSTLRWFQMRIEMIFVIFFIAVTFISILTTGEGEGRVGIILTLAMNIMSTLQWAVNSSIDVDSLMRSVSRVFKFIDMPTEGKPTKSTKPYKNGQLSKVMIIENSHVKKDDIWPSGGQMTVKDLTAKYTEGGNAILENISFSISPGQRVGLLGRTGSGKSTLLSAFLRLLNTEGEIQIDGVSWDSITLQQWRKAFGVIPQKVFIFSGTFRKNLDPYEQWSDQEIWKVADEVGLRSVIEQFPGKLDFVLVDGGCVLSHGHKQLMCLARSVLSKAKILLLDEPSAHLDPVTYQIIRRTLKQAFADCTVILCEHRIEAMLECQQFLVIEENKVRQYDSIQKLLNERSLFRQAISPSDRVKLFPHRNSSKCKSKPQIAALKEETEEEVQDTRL
# The other results are listed elsewhere or left out.
# Experiments:
# [1] = compounds raising F508del-CFTR protein level – cell-based, HeLa F508del-CFTR, immunofluorescence, viability, primary screen (AID 1224863); conditions: immunofluorescence total CFTR, 24 h, stronger effect = higher value; min viability: measured here: HeLa viability, alamarBlue, dose 50, library dosed in µM; viability: measured here: primary viability 25 uM, at 25 µM, library dosed in µM;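 for fold increase: total CFTR protein by anti-CFTR immunofluorescence in fixed cells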
# [2] = biological target: Cystic fibrosis transmembrane conductance regulator (Homo sapiens) (UniProt P13569); test: as above; conditions: immunofluorescence total CFTR, 24 h, measured here: primary screen single dose 25 uM, at 25 µM, library dosed in µM, stronger effect = higher value
structure (smiles),measurement,setting,value
CN(CCCl)CCCl,min viability,[1],6.58%
same,viability,[1],63%
same,fold increase,[2],1.55
